PubChem BioAssay AID662 (National Center for Advancing Translational Sciences (NCATS), 2007)
Some of the results follow. The main result of the screen is listed elsewhere. These columns were measured beside it and carry no call. Most of these compounds were active or inconclusive in the main read-out, so they are no random draw. Potencies come from curve fits of mixed quality, noted in brackets.

Test: Cell signaling CRE-BLA (Fsk stim)
Conditions: CHO CRE-bla reporter (cAMP response element driving beta-lactamase), forskolin EC10, beta-lactamase ratio; measured here: 460 nm blue channel
Summary of the method: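 Modulation of forskolin-driven signalling is measured in CHO cells carrying a CRE-controlled beta-lactamase reporter. Cells are stimulated with EC10 NKH 477 in the presence of titrated compound for 3 h at 37 °C, then loaded with CCF4 for 2 h at room temperature.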

SMILES | AC50
CCCCc1cc(=O)oc2cc(OCC(=O)N(CC)CC)c(Cl)cc12 | 10 µM [rising, partial curve]
Cc1cc(NC(=O)CC(C)(C)C)nc2c1c(=O)oc1ccccc12 | 3.98 µM [rising, full curve, poor fit]
O=C(CSc1nc2ccsc2c(=O)n1Cc1ccccc1)NCc1ccco1 | 10 µM [falling, partial curve]
CC(C)CCNC(=O)NC(=O)CSc1nnc(-c2ccccc2Br)o1 | 3.98 µM [falling, partial curve]
O=C(c1ccco1)N1CCN(c2cc(=O)n(C3CCCCC3)c(=O)[nH]2)CC1 | 12.6 µM [falling, partial curve]
N#Cc1c(-c2ccccc2)cc(-c2ccco2)c(C#N)c1N | 5.01 µM [falling, partial curve]
COc1ccc(-c2cn3cccnc3n2)cc1NC(=O)C1CCCC1 | 1.26 µM [falling, partial curve, poor fit]
Cn1c(CCNC(=O)c2ccco2)nc2cc(NS(=O)(=O)c3ccccc3)ccc21 | 0.0158 µM [falling, full curve, poor fit]
CN=C1SC(CC(=O)Nc2sc(C)c(C)c2C(=O)OC)C(=O)N1C (configuration not stated) | 5.01 µM [rising, single point]
CCOc1cc(NC(=O)C2CCCCC2)c(OCC)cc1NC(=O)c1ccco1 | 3.16 µM [rising, single point]
CCOC(=O)c1c(C)[nH]c(C)c1C(=O)COC(=O)CNC(=O)c1ccc(OCC)cc1 | 3.16 µM [rising, single point]
O=C1c2ccccc2-c2ncnc3c(N4CCOCC4)cc(N4CCOCC4)c1c23 | 2.51 µM [rising, full curve]
Cn1c(SCc2ccc(C#N)cc2)nnc1-c1cccc(Cl)c1 | 0.0501 µM [rising, full curve, poor fit]
Cc1nn(-c2ccccc2)c2c1C1(C(=O)Nc3ccccc31)N1C(=N2)Sc2ccccc21 (configuration not stated) | 12.6 µM [falling, partial curve]
O=S(=O)(O)c1cc(O)c2c(N=Cc3ccccc3O)cc(S(=O)(=O)O)cc2c1 | 3.98 µM [rising, single point]
Cc1ccc(S(=O)(=O)NCc2ccc(C(=O)N3CCN(c4ccccn4)CC3)cc2)cc1 | 0.01 µM [falling, full curve, poor fit]
O=C(NCCCN1CCCC1=O)c1ccc2c(c1)ncn2C1CCCCC1 | 12.6 µM [rising, single point]
O=c1oc2ccccc2n1CSc1nc2ccccc2s1 | 5.01 µM [falling, single point]
O=c1c2c3nc4ccccc4nc3n(/N=C/c3cccs3)c2ncn1-c1ccccc1 | 12.6 µM [rising, partial curve]
Cc1cccc(NC(=O)CSc2nnc(-c3ccccc3)n2N)c1 | 3.16 µM [falling, full curve, poor fit]
CCn1c(SCC(=O)NCc2ccco2)nnc1C(C)C | 0.501 µM [falling, full curve, poor fit]

Ten entries from above, set out differently.
SMILES,AC50
N#Cc1c(-c2ccccc2)cc(-c2ccco2)c(C#N)c1N,"5.01 µM [falling, partial curve]"
COc1ccc(-c2cn3cccnc3n2)cc1NC(=O)C1CCCC1,"1.26 µM [falling, partial curve, poor fit]"
Cn1c(CCNC(=O)c2ccco2)nc2cc(NS(=O)(=O)c3ccccc3)ccc21,"0.0158 µM [falling, full curve, poor fit]"
CN=C1SC(CC(=O)Nc2sc(C)c(C)c2C(=O)OC)C(=O)N1C (configuration not stated),"5.01 µM [rising, single point]"
CCOc1cc(NC(=O)C2CCCCC2)c(OCC)cc1NC(=O)c1ccco1,"3.16 µM [rising, single point]"
CCOC(=O)c1c(C)[nH]c(C)c1C(=O)COC(=O)CNC(=O)c1ccc(OCC)cc1,"3.16 µM [rising, single point]"
O=C1c2ccccc2-c2ncnc3c(N4CCOCC4)cc(N4CCOCC4)c1c23,"2.51 µM [rising, full curve]"
Cn1c(SCc2ccc(C#N)cc2)nnc1-c1cccc(Cl)c1,"0.0501 µM [rising, full curve, poor fit]"
Cc1nn(-c2ccccc2)c2c1C1(C(=O)Nc3ccccc31)N1C(=N2)Sc2ccccc21 (configuration not stated),"12.6 µM [falling, partial curve]"
O=S(=O)(O)c1cc(O)c2c(N=Cc3ccccc3O)cc(S(=O)(=O)O)cc2c1,"3.98 µM [rising, single point]"

Following part.

SMILES | AC50
O=C(CCN1CCN(c2ccc(F)cc2)CC1)Nc1ccc(F)cc1 | 20 µM [falling, partial curve, poor fit]
CCN(CCNC(=O)CCCn1nc(C)n2c(cc3sccc32)c1=O)c1ccccc1 | 10 µM [rising, single point]
CC(=O)C1=C(C)NC(SCSc2ccccc2)=C(C#N)C1c1cccnc1 (configuration not stated) | 2 µM [rising, full curve, poor fit]
Cc1nn(Cc2ccccc2)c(C)c1NC(=O)c1cc(-c2ccco2)on1 | 0.0126 µM [falling, full curve, poor fit]
Cc1c(C(=O)N2CCCC2)oc2c1-c1[nH]ncc1CC2 | 3.98 µM [rising, partial curve]
Clc1ccc(Cn2c(CN3CCCC3)nc3ccccc32)cc1 | 12.6 µM [falling, single point]
COC(=O)c1cccc(NC(=O)Cn2cnc3c2c(=O)n(C)c(=O)n3C)c1 | 15.8 µM [rising, single point]
Nn1c(-c2cccs2)nc2sc3c(c2c1=O)CCCC3 | 10 µM [rising, partial curve]
CCc1ccc(NC(=O)CSc2nc3c(c(=O)n(C)c(=O)n3C)n2C)cc1 | 12.6 µM [rising, partial curve]
O=C(CN(C(=O)CCC(=O)Nc1nccs1)c1ccc2c(c1)OCO2)NCC1CCCO1 (configuration not stated) | 0.126 µM [falling, single point]
COc1ccc(OC)c(CNC(=O)C2CCCN(c3nc4ccccc4o3)C2)c1 (configuration not stated) | 1.26 µM [rising, full curve, poor fit]
c1ccc(Nc2nc(-c3ccoc3)nc3ccccc23)cc1 | 5.01 µM [rising, partial curve]
O=C(NCc1ccc(N2CCCC2=O)cc1)c1cnccn1 | 0.1 µM [falling, partial curve, poor fit]
CCN(CC)C(=O)c1cn(CC)c(=O)c2cc(OC)c(OC)cc12 | 15.8 µM [rising, single point]
Cc1c(=O)n(OCc2ccccc2)c2ccccc2[n+]1[O-] | 3.16 µM [rising, single point]
CCOc1ccc2[nH]c(=O)c(C(c3nnnn3CC3CCCO3)N3CCc4ccccc4C3)cc2c1 (configuration not stated) | 12.6 µM [rising, partial curve]
COc1ccc(-c2cc(C(=O)N3CCCCC3)no2)cc1OC | 10 µM [rising, single point]
COc1ccccc1CNC(=O)CSc1nc(-c2ccccc2)cn1N | 25.1 µM [falling, single point]
COCCn1c(=NC(=O)CSC(C)=O)sc2cc(OC)ccc21 | 10 µM [rising, single point]
c1ccc(N2CCN(c3nc4ccccc4n4nnnc34)CC2)cc1 | 0.1 µM [falling, full curve]
CC(C)c1nnc(NC(=O)CCC(=O)NCC2CCCO2)s1 (configuration not stated) | 5.01 µM [falling, partial curve]
